This test has as its target T1, Flag-PHB (UniProt P35232).
T1 sequence: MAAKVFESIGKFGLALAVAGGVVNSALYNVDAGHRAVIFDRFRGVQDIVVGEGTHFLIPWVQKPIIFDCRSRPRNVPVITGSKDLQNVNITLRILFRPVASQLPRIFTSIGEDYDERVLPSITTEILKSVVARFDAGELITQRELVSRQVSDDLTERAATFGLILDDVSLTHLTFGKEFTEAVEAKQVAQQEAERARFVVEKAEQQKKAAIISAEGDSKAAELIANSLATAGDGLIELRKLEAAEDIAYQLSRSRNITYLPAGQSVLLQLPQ
Nature of the test: co-IP; lysates of transfected cells precleared with IgG and protein A/G Sepharose beads, flag antibody overnight at 4°C, protein A/G Sepharose beads 4 h, washed thrice with lysis buffer, immunoblotting. In general terms: A western blot detects proteins with antibodies after separation by electrophoresis.

Results are given in words; binding and its absence hold for the method and conditions named. Binding seen in cells or lysates may run through a third protein. Some results given as binding are weak or reduced against the parent protein; the word gives no strength. Sequences can lack the tags named with a protein.

B1: PTPLAD1, endogenous (protein, UniProt Q9P035 1-362)
chain: MENQVLTPHVYWAQRHRELYLRVELSDVQNPAISITENVLHFKAQGHGAKGDNVYEFHLEFLDLVKPEPVYKLTQRQVNITVQKKVSQWWERLTKQEKRPLFLAPDFDRWLDESDAEMELRAKEEERLNKLRLESEGSPETLTNLRKGYLFMYNLVQFLGFSWIFVNLTVRFCILGKESFYDTFHTVADMMYFCQMLAVVETINAAIGVTTSPVLPSLIQLLGRNFILFIIFGTMEEMQNKAVVFFVFYLWSAIEIFRYSFYMLTCIDMDWKVLTWLRYTLWIPLYPLGCLAEAVSVIQSIPIFNETGRFSFTLPYPVKIKVRFSFFLQIYLIMIFLGLYINFRHLYKQRRRRYGQKKKKIH
In the case of B1, the binding entry is given as “binds”.

These data come from paper PMC11008263.
